For at least one compound, name, drawing or mass did not settle the structure. Where a SMILES comes first, the peptide text is derived from it. [ ]: non-standard residue; d: D form. The star is where a group is joined. 5FAM = O=C1OC2(c3ccc(O)cc3Oc3cc(O)ccc32)c2ccc(C(=O)*)cc21; βAla = NCCC(=O)O
Molecular target: T1, GB1-AF9 protein (residues 497-568) (Homo sapiens, UniProt P42568)
T1 construct: the recombinant GB1-AF9 protein (residues 497-568); made in house; host or cells: Escherichia coli BL21 (DE3)
T1 sequence (P42568 497-568): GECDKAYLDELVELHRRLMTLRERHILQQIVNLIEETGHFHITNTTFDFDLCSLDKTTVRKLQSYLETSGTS
Assay: Optimized FP saturation experiment with labeled DOT1L-10 mer peptides
Assay type: binding
Settings: recombinant GB1-AF9

CC[C@H](C)[C@H](NC(=O)[C@@H]1CCCN1C(=O)[C@H](CC(C)C)NC(C)=O)C(=O)N[C@@H](CO)C(=O)N[C@H](C(=O)N1CCC[C@H]1C(=O)N[C@@H](CC(C)C)C(=O)N[C@@H](CO)C(=O)N[C@H](C(=O)N[C@H](C(=O)NCCC(=O)NCCC(=O)N[C@@H](CCCCNC(=O)c1ccc2c(c1)C(=O)OC21c2ccc(O)cc2Oc2cc(O)ccc21)C(N)=O)C(C)C)[C@@H](C)O)[C@@H](C)CC [C-Flu-DOT1L] (Ac-LPISIPLSTV[βAla][βAla]K(5FAM)-NH2)
Kd: 127 ± 9 nM

Source: patent US9862746B2, “Compositions and methods relating to hindering DOT1L recruitment by MLL-fusion proteins” (The Regents of the University of Michigan, priority 2013, dated 2018)
